These are yes or no findings as the source states them, for the method shown. In cells and extracts the contact can be indirect. For part of these data: Binding can be weak; no strength is given.
Legend:
Assay in all cases: co-IP; T. brucei cells expressing the tagged proteins lysed in IP buffer (25 mM Tris-HCl pH 7.4, 100 mM NaCl, 0.25% Nonidet P-40, 1 mM DTT, nuclease) with sonication; anti-Ty1 or mouse anti-HA, 1 hr at 4°C, Protein-G Dynabeads; western blot with anti-Ty1 and anti-HA
[1] = molecular target: TbTTC29Ty1 (Tb927.3.1990) (Trypanosoma brucei) (UniProt Q57ZB2)
[2] = molecular target: T1, Ty1TbPF16/SPAG6 (Tb927.1.2670) (Trypanosoma brucei) (UniProt Q4GYV5)
T1 sequence: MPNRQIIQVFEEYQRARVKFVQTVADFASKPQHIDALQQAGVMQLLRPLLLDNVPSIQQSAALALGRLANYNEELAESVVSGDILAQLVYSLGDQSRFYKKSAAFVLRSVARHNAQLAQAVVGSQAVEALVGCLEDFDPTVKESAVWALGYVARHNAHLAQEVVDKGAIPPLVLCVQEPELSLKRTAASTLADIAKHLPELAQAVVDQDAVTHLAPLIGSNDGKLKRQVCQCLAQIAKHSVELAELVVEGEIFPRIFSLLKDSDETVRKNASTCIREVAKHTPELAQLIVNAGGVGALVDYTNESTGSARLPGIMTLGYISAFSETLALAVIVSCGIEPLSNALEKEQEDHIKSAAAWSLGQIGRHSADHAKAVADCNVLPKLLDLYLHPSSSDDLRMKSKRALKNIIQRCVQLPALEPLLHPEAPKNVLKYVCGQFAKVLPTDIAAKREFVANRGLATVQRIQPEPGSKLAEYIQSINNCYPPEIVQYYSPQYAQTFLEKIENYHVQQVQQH

Amino acid sequences for entries named in this document (tags omitted). A change or cut given only in a name is not applied to a line headed by its entry.
UniProt Q57ZB2: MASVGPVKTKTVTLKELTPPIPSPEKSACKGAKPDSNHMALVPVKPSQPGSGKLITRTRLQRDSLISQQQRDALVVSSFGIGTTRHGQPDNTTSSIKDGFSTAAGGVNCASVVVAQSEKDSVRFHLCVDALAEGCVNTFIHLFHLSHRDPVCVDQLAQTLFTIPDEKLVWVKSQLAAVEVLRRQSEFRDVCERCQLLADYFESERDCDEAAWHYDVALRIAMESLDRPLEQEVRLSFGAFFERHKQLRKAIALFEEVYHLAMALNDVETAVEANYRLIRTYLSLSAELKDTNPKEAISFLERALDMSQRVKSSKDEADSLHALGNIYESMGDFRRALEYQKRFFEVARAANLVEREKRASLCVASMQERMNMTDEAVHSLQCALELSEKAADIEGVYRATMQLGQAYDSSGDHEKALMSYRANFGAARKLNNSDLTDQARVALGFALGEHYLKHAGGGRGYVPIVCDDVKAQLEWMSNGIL
UniProt Q38DX5: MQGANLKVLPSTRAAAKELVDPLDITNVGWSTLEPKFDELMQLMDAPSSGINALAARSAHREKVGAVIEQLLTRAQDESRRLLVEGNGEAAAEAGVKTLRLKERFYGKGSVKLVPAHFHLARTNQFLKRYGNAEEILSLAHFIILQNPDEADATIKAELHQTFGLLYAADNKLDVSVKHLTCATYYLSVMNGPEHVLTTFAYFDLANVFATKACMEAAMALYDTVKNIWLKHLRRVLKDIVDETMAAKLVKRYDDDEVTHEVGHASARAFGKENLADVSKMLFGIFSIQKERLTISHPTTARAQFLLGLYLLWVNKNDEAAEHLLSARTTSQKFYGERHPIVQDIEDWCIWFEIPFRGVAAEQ

[3] = molecular target: TbTAX-1HA (T. brucei ortholog of ZMYND12, Tb927.9.10370) (Trypanosoma brucei) (UniProt Q38DX5)

Row | Substance | binding [1] | binding [2] | binding [3]
1 | TbTAX-1HA (T. brucei ortholog of ZMYND12, Tb927.9.10370) (from UniProt Q38DX5) | binds | no binding | 
2 | TbTTC29Ty1 (Tb927.3.1990) (from UniProt Q57ZB2) |  |  | binds

From PMC10629824
